Assay results taken from the supplement of paper PMC10849652.
The other results are listed elsewhere or left out.

By UniProt entry, the sequences of proteins in these tests, tags left out. Where a name states a change or a piece, a line headed by the entry shows the natural chain unless it says otherwise.
UniProt Q6IA69: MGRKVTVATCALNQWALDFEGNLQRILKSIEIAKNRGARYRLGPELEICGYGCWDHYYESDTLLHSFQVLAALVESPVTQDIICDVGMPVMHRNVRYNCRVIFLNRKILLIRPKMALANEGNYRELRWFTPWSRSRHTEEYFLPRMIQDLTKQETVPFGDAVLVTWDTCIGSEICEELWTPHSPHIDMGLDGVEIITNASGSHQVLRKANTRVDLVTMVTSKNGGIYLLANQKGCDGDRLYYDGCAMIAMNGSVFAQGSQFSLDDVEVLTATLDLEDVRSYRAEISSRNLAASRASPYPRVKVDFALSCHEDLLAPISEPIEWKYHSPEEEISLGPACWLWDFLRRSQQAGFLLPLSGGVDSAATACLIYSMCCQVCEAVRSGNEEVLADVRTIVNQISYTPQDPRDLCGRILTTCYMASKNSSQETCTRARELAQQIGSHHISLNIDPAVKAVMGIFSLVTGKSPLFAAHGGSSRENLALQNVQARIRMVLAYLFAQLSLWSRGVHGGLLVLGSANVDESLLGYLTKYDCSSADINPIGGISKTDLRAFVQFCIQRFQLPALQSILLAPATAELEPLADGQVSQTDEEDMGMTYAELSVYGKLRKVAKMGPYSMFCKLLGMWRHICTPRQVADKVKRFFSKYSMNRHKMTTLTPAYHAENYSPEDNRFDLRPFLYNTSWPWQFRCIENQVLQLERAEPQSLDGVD
UniProt Q9UHQ1: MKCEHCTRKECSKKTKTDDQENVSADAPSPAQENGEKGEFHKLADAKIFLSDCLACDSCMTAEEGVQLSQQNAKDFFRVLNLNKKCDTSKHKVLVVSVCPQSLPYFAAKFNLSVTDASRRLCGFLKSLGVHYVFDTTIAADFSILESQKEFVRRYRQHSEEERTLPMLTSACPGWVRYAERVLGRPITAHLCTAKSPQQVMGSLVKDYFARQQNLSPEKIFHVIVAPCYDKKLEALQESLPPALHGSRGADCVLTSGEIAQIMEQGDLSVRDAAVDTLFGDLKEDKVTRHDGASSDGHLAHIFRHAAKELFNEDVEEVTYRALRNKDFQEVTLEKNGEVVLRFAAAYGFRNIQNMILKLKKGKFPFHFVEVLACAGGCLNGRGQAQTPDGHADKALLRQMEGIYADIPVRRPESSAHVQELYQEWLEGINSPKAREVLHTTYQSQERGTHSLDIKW
UniProt Q96NY9: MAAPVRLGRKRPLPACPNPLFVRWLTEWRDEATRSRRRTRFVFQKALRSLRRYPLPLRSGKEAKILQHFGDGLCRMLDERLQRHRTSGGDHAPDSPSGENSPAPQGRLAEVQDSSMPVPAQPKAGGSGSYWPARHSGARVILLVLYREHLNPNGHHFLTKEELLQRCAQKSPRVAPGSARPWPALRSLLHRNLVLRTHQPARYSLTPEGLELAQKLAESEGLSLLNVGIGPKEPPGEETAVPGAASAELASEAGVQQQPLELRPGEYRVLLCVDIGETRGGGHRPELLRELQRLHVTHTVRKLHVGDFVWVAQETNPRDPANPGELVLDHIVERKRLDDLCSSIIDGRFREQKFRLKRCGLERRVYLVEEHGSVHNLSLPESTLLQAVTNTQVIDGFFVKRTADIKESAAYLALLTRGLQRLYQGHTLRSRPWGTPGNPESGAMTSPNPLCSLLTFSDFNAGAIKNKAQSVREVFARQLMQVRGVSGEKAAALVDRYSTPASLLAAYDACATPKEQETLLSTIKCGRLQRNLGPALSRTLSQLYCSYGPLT
UniProt Q6NZ67, whole entry, looked up: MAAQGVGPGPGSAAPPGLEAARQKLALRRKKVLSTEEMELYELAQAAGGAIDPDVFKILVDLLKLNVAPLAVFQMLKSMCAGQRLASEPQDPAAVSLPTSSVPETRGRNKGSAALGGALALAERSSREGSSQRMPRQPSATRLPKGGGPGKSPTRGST
UniProt Q8NEY1: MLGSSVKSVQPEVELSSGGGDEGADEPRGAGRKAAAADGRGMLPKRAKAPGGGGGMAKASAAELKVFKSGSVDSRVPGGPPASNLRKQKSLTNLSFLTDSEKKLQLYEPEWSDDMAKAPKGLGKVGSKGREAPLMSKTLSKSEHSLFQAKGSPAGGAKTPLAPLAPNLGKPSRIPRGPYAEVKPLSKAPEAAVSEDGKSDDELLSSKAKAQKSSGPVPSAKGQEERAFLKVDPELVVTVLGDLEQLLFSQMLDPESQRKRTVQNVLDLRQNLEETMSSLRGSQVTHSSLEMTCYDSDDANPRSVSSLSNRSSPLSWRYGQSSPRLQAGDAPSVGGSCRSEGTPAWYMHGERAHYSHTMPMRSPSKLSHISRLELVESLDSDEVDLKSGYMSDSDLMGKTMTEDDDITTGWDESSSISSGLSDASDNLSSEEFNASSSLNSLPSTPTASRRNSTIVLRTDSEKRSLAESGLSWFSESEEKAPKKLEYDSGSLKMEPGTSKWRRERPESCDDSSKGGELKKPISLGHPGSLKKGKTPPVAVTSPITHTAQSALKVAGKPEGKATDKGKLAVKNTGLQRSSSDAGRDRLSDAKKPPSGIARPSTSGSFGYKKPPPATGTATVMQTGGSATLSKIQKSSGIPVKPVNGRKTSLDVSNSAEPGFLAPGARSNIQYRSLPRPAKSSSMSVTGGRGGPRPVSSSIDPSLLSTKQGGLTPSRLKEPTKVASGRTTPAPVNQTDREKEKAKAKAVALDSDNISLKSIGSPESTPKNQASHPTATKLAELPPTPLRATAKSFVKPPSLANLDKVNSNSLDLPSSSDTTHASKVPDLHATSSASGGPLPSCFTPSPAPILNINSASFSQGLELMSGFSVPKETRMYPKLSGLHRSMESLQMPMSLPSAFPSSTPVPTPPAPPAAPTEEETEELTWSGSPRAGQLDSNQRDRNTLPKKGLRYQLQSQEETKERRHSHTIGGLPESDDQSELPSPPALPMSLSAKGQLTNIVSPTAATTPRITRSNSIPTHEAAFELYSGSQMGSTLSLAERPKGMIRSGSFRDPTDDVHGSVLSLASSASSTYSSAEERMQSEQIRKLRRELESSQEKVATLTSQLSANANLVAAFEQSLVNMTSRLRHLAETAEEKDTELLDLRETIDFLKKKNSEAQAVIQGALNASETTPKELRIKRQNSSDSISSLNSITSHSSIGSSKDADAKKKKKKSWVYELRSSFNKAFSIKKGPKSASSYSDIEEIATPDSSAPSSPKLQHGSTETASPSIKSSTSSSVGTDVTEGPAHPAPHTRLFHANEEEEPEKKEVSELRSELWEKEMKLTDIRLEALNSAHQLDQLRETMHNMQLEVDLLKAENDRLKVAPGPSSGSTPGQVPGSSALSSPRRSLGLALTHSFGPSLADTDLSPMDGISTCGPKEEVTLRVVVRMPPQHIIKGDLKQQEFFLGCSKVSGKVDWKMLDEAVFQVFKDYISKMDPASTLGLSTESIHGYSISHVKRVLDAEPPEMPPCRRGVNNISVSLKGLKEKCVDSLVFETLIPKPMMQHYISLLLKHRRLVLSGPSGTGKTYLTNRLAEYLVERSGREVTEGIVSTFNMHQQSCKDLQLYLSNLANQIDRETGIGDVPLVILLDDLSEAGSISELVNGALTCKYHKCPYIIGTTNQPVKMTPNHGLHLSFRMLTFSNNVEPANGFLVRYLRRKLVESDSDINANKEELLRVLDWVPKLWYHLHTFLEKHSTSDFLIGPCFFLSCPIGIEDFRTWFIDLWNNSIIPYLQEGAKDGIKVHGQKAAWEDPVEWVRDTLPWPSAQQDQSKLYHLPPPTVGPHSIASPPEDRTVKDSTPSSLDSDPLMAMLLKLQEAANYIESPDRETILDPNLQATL
UniProt P49321, whole entry, looked up: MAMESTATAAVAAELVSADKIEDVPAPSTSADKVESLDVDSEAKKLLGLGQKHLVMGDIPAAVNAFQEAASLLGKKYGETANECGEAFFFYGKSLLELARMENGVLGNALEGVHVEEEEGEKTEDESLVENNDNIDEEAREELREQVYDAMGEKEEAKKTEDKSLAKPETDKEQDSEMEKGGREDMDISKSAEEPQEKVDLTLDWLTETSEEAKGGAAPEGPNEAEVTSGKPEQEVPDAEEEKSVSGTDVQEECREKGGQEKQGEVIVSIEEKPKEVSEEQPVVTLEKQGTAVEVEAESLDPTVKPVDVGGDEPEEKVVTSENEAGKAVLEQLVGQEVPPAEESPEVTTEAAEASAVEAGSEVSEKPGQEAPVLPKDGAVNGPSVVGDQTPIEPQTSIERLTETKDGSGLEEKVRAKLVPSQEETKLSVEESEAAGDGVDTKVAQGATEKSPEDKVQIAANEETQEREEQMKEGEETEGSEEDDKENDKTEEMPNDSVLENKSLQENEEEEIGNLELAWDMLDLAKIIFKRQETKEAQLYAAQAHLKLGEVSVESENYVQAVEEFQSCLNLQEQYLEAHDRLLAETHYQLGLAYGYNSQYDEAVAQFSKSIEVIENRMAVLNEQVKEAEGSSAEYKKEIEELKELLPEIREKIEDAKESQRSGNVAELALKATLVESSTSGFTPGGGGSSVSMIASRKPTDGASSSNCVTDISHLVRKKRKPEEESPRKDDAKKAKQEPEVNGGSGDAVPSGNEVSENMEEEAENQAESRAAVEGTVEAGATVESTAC
UniProt P18440: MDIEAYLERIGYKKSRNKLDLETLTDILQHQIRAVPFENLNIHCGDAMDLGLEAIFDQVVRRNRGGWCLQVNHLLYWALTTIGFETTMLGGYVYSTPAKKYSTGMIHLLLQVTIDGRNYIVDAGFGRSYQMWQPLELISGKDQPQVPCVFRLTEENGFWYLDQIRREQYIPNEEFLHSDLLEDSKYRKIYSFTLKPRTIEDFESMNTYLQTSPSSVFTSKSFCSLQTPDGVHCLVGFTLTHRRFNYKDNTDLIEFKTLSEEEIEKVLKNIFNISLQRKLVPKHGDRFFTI
UniProt B0I1T2: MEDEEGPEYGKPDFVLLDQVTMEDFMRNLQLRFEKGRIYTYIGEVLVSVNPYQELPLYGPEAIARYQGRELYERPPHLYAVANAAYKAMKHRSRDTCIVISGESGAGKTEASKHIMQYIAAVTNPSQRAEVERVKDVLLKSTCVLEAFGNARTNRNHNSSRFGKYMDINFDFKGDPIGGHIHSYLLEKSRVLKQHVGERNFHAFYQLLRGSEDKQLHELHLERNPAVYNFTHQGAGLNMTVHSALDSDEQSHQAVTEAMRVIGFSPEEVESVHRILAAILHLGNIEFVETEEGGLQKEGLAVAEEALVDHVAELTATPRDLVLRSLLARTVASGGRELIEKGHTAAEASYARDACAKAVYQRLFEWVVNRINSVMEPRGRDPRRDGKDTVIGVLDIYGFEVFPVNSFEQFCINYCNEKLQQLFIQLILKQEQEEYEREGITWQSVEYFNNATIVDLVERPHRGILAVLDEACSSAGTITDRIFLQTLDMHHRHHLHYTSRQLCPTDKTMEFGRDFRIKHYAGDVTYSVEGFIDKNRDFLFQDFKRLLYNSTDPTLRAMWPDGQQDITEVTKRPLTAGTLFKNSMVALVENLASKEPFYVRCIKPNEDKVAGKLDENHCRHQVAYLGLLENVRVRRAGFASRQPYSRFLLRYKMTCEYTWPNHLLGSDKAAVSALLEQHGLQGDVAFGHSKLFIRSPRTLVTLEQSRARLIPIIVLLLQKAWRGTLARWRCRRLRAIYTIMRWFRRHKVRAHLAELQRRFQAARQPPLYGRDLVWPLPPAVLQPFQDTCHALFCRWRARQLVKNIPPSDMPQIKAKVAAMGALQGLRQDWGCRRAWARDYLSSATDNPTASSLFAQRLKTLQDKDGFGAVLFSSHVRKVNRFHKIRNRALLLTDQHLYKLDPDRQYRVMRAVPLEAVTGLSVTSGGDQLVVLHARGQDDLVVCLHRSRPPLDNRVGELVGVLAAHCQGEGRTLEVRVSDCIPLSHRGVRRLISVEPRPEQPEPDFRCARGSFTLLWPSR
UniProt Q9BTX1: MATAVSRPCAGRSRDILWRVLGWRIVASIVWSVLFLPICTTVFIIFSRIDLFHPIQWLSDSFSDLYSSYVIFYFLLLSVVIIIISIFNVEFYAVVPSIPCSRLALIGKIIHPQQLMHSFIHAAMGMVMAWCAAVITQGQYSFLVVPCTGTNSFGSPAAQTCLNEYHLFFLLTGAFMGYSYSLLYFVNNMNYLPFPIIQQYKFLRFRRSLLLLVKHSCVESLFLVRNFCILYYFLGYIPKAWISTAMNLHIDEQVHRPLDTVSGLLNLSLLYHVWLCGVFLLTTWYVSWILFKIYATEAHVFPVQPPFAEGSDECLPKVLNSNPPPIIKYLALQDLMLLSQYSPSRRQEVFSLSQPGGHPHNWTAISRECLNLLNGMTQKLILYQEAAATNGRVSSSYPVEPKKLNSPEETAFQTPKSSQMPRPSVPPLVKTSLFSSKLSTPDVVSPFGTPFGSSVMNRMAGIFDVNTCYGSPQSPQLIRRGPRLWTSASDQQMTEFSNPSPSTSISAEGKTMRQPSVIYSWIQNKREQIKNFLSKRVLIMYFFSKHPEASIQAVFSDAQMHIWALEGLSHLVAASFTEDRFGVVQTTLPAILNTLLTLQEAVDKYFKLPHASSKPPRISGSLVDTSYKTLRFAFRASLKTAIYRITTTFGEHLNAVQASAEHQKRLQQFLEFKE

Experiments:
Assay in all cases: log2 fold change, soluble protein after heating vs DMSO (PISA); higher = thermal stabilisation; K562 lysate, 10 uM; active = over 0.2 and 3.5 SD of the protein, either way, in both replicates (recomputed)
[1] = compound: CS(=O)(=O)CCNCc1ccc(-c2ccc3ncnc(Nc4ccc(OCc5cccc(F)c5)c(Cl)c4)c3c2)o1 [lapatinib]
Method in brief: (§1)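 Pellets of K562 cells were dounce-homogenised in PBS pH 7.4 with 1 mM MgCl2, and the crude extract was held at 1 mg/mL protein for a 30 min treatment with 10 μM compound. Aliquots were heated for 3 min over 48°C-58°C and pooled before NP-40 was added to 0.5% at 4°C. The supernatant from 21,000xg for 90 min was quantified by TMTpro 16plex LC-MS/MS with channel sums equalised. Values are reported from duplicates as log-two fold change in thermal stability relative to solvent controls.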

[2] = compound: CS(=O)(=O)N1CCN(Cc2cc3nc(-c4cccc5[nH]ncc45)nc(N4CCOCC4)c3s2)CC1 [pictilisib]
Method in brief: as §1

[3] = compound: C[C@@H](Oc1cc(-c2cnn(C3CCNCC3)c2)cnc1N)c1c(Cl)ccc(F)c1Cl [crizotinib]
Method in brief: as §1

[4] = compound: C[C@H](C1=CC=C(C=C1)C(=O)NC2=C3C=CNC3=NC=C2)N
Method in brief: as §1

[5] = compound: C[C@H](Nc1ncnc2nc[nH]c12)c1cc2cccc(Cl)c2c(=O)n1-c1ccccc1 [duvelisib]
Method in brief: as §1

[6] = compound: Cc1cc(Nc2cc(CN3CCOCC3)c3nc(C)c(Cc4ccc(Cl)cc4F)n3n2)n[nH]1 [gandotinib]
Method in brief: as §1

[7] = compound: Cc1cc(Nc2cc(N3CCN(C)CC3)nc(Sc3ccc(NC(=O)C4CC4)cc3)n2)n[nH]1 [tozasertib]
Method in brief: as §1

[8] = compound: Cc1ccc(-n2nc(C(C)(C)C)cc2NC(=O)Nc2ccc(OCCN3CCOCC3)c3ccccc23)cc1 [doramapimod]
Method in brief: as §1

[9] = compound: Cc1ccc(NC(=O)c2ccc(CN3CC[C@H](N(C)C)C3)c(C(F)(F)F)c2)cc1Nc1nccc(-c2cncnc2)n1 [bafetinib]
Method in brief: as §1

[10] = compound: Cc1cccc(CC(=O)N2CCc3c2ccc(-c2cn(C)c4ncnc(N)c24)c3F)n1
Method in brief: as §1

Measured: log2 fold change

NAGA (UniProt P17050)
inactive: [1] -0.063 | [2] -0.048 | [3] 0 | [4] 0.039 | [5] 0.011 | [6] -0.006 | [7] -0.041 | [8] -0.083 | [9] 0.113 | [10] -0.046

MUL1 (UniProt Q969V5)
inactive: [1] 0.013 | [2] -0.065 | [3] -0.005 | [4] 0.16 | [5] 0.035 | [6] -0.028 | [7] 0.013 | [8] 0.042 | [9] -0.008 | [10] 0.021

NCOA3 (UniProt Q9Y6Q9)
inactive: [1] 0.044 | [2] -0.022 | [3] 0.027 | [4] 0.017 | [5] -0.008 | [6] 0.007 | [7] 0.098 | [8] 0.008 | [9] -0.015 | [10] -0.011

N6AMT1 (UniProt Q9Y5N5)
inactive: [1] -0.018 | [2] -0.038 | [3] -0.02 | [5] -0.017 | [6] -0.033 | [7] 0.008 | [8] 0.014 | [9] -0.109 | [10] -0.098
active: [4] 0.34

NADSYN1 (UniProt Q6IA69)
inactive: [1] -0.018 | [2] 0.005 | [3] 0.042 | [4] 0.036 | [5] 0.017 | [6] -0.023 | [7] -0.025 | [8] 0 | [9] -0.021 | [10] -0.04

MYL6B (UniProt P14649)
inactive: [1] -0.003 | [2] -0.04 | [3] 0.051 | [4] 0.033 | [5] 0.021 | [6] 0.02 | [7] 0.048 | [8] -0.029 | [9] 0.008 | [10] -0.04

NCALD (UniProt P61601)
inactive: [1] -0.035 | [2] -0.056 | [3] 0.005 | [4] -0.019 | [5] 0.022 | [6] 0.044 | [7] 0.029 | [8] 0.061 | [9] -0.01 | [10] 0.002

NARF (UniProt Q9UHQ1)
inactive: [1] -0.027 | [2] 0.01 | [3] 0.032 | [4] 0.001 | [5] 0.029 | [6] 0.008 | [7] 0.02 | [8] 0.012 | [9] -0.008 | [10] -0.04

MUS81 (UniProt Q96NY9)
inactive: [1] 0.046 | [2] 0.156 | [3] -0.216 | [4] -0.077 | [5] -0.025 | [6] 0.135 | [8] 0.045 | [9] -0.246 | [10] 0.019

NAA15 (UniProt Q9BXJ9)
inactive: [1] -0.005 | [2] 0.003 | [3] 0.019 | [4] 0.04 | [5] -0.006 | [6] -0.028 | [7] 0.014 | [8] -0.011 | [9] 0.029 | [10] -0.009

NAP1L1 isoform 3 (UniProt P55209)
inactive: [1] 0.052 | [2] -0.007 | [3] -0.158 | [4] -0.53 | [5] 0.073 | [6] 0.198 | [7] 0.061 | [8] 0.094 | [9] -0.244 | [10] 0.147

NCAPG (UniProt Q9BPX3)
inactive: [1] -0.029 | [2] 0 | [3] -0.074 | [4] -0.028 | [5] -0.007 | [6] -0.094 | [7] -0.011 | [8] 0.026 | [9] -0.035 | [10] 0.011

NCOA1 (UniProt Q15788)
inactive: [1] 0.001 | [2] -0.024 | [3] 0.012 | [4] -0.043 | [5] 0.029 | [6] 0.041 | [7] 0.002 | [8] -0.024 | [9] -0.004 | [10] 0.018

NCOR1 (UniProt O75376)
inactive: [1] 0.046 | [2] -0.028 | [3] 0.018 | [4] 0.031 | [5] -0.022 | [6] -0.03 | [7] -0.009 | [8] -0.034 | [9] -0.028 | [10] 0.006

MUCL1 (UniProt Q96DR8)
inactive: [1] 0.389 | [2] 0.412 | [3] 0.394 | [4] 0.457 | [5] -0.836 | [6] -0.381 | [7] 0.739 | [8] 0.199 | [9] -0.11 | [10] -0.351

MZT2B (UniProt Q6NZ67)
inactive: [1] -0.004 | [2] -0.136 | [3] 0.035 | [4] 0.016 | [6] -0.008 | [7] 0.035 | [8] 0.021 | [9] -0.128 | [10] 0.095

NAV1 (UniProt Q8NEY1)
inactive: [1] 0.011 | [2] 0.09 | [3] -0.075 | [4] -0.103 | [5] -0.02 | [6] -0.121 | [7] -0.016 | [8] 0.035 | [9] -0.068 | [10] 0.292

NASP isoform 2 (UniProt P49321)
inactive: [1] 0.197 | [2] 0.017 | [4] 0.865 | [6] -0.608 | [9] -0.12 | [10] -0.606

NAT1 (UniProt P18440)
inactive: [1] 0.026 | [2] 0.111 | [3] -0.227 | [4] -0.089 | [5] 0.006 | [6] 0.004 | [7] -0.048 | [8] 0.058 | [9] 0.006 | [10] 0.083

MYO1G (UniProt B0I1T2)
inactive: [1] -0.028 | [2] 0.206 | [3] 0.073 | [4] 0.42 | [5] 0.125 | [6] -0.212 | [7] 0 | [8] 0.066 | [9] 0.003 | [10] -0.253

MYH6 (UniProt P13533)
inactive: [1] -0.111 | [3] -0.097 | [7] 0.009 | [8] -0.245 | [9] -0.132
active: [2] -1.52

NDC1 (UniProt Q9BTX1)
active: [4] -0.333 | [10] 0.296
inactive: [1] -0.087 | [2] -0.012 | [3] -0.027 | [5] -0.044 | [6] 0.185 | [7] -0.01 | [8] -0.001 | [9] -0.066

MYL3 (UniProt P08590)
inactive: [1] 0 | [2] 0.057 | [3] 0.105 | [4] 0.142 | [6] -0.079 | [7] 0.031 | [8] -0.017 | [9] -0.141 | [10] -0.024

NCDN isoform 3 (UniProt Q9UBB6)
inactive: [1] -0.023 | [2] -0.037 | [3] -0.025 | [4] 0.065 | [5] -0.017 | [6] -0.135 | [7] -0.017 | [8] -0.002 | [9] -0.011 | [10] 0.009

MYO18B isoform 3 (UniProt Q8IUG5)
inactive: [1] -0.024 | [2] 0.03 | [3] -0.029 | [5] 0.026 | [7] 0.03 | [8] -0.036 | [9] -0.075

NAV2 (UniProt Q8IVL1)
inactive: [1] -0.075 | [2] -0.567 | [4] -0.554 | [6] 0.249 | [7] 0.038 | [9] -0.486 | [10] 0.816

NCCRP1 (UniProt Q6ZVX7)
inactive: [1] 0.198 | [2] 0.504 | [3] -0.127 | [4] 0.551 | [5] -0.31 | [6] 0.382 | [8] -0.096 | [9] -0.012 | [10] -0.539

NCK1 (UniProt P16333)
inactive: [1] 0.025 | [2] 0 | [3] -0.024 | [4] 0.065 | [5] 0.014 | [6] -0.051 | [7] 0.005 | [8] 0.03 | [9] -0.033 | [10] -0.024

MYO9A isoform 4 (UniProt B2RTY4)
inactive: [1] -0.027 | [2] 0.022 | [3] -0.03 | [4] -0.014 | [5] -0.019 | [6] -0.044 | [8] 0.005 | [9] -0.103 | [10] 0.036

Quoted at random: 2 entries already listed, in no set order.
MYO9A isoform 4 (UniProt B2RTY4)
inactive: [1] -0.027 | [2] 0.022 | [3] -0.03 | [4] -0.014 | [5] -0.019 | [6] -0.044 | [8] 0.005 | [9] -0.103 | [10] 0.036

MYL6B (UniProt P14649)
inactive: [1] -0.003 | [2] -0.04 | [3] 0.051 | [4] 0.033 | [5] 0.021 | [6] 0.02 | [7] 0.048 | [8] -0.029 | [9] 0.008 | [10] -0.04
